Measurements taken from publication doi:10.1101/495762 (bioRxiv, 2018).
Results are given in words; binding and its absence hold for the method and conditions named. In cells and extracts the contact can be indirect. Some entries that bind do so weakly or less than the wild type. Tags and fused reporters may be left off the sequences shown.

Legend:
[1] = biological target: T1, Smc3(K198C, S1127R)-HaloTag (S. cerevisiae) (UniProt P47037); test: cross-linking
T1 sequence: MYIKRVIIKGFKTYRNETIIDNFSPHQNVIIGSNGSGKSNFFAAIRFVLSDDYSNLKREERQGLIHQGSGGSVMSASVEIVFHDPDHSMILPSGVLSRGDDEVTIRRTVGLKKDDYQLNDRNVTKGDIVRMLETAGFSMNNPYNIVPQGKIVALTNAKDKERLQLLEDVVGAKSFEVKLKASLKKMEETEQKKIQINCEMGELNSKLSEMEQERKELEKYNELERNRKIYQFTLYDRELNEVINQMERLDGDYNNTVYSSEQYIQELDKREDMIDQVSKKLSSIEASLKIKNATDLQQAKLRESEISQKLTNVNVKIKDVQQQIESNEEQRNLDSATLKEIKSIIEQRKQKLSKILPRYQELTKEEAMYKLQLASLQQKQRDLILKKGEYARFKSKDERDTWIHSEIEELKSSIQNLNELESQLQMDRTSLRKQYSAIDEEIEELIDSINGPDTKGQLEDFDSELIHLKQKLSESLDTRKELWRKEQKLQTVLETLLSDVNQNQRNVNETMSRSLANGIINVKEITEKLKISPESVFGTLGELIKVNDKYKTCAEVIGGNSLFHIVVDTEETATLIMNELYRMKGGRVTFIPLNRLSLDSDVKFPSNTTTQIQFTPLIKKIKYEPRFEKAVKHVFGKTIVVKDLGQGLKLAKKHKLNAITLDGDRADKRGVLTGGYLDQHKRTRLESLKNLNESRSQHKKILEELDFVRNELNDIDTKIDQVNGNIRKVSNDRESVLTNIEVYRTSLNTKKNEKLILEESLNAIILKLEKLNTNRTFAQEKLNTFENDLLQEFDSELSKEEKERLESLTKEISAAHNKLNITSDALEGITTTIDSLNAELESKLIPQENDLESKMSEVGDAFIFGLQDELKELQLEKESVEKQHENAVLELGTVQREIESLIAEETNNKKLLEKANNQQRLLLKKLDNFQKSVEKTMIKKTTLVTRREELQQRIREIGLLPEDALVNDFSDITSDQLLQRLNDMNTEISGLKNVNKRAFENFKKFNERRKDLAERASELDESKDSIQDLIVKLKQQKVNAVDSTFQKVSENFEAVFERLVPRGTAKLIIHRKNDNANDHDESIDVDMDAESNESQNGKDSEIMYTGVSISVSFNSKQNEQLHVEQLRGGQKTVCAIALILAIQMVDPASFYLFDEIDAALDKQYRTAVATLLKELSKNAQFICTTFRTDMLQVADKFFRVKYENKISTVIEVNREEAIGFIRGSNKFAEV

[2] = biological target: T2, Smc3(E570C, E1155Q)-HaloTag (S. cerevisiae) (UniProt P47037); test: cross-linking
T2 sequence: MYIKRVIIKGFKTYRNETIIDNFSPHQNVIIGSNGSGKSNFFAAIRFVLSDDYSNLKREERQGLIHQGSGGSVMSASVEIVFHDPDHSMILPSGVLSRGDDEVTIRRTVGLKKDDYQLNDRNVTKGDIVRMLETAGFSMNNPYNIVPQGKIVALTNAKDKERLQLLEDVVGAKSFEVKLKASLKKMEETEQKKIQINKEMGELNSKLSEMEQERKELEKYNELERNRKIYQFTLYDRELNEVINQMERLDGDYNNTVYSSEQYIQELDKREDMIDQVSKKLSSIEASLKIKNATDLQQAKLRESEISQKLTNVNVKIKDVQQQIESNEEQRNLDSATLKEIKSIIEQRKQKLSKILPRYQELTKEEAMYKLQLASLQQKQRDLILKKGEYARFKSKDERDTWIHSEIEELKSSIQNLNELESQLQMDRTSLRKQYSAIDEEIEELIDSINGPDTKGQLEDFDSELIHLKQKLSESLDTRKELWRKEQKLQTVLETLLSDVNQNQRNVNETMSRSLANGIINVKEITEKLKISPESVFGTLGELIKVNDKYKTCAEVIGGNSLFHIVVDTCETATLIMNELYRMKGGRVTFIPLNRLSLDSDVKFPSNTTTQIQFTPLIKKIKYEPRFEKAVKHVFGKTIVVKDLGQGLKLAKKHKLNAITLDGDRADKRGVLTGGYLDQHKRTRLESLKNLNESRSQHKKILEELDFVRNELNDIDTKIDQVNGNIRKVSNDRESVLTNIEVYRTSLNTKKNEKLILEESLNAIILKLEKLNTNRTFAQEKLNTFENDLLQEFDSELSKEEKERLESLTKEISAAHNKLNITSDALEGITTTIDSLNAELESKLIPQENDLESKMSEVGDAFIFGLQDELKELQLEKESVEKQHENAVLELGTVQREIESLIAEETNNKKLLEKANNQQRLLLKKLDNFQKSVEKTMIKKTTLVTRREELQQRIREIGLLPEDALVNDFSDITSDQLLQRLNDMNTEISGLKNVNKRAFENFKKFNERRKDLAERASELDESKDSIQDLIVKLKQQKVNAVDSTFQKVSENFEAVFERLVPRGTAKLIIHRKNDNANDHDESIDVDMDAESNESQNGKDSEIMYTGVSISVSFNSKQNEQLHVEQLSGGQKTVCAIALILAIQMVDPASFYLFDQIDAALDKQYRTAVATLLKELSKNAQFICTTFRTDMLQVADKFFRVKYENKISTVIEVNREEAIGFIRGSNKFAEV

B1: Smc1(K201C) (protein, UniProt P32908 1-1225)
chain: MGRLVGLELSNFKSYRGVTKVGFGESNFTSIIGPNGSGKSNMMDAISFVLGVRSNHLRSNILKDLIYRGVLNDENSDDYDNEGAASSNPQSAYVKAFYQKGNKLVELMRIISRNGDTSYKIDGKTVSYKDYSIFLENENILIKAKNFLVFQGDVEQIAAQSPVELSRMFEEVSGSIQYKKEYEELKEKIEKLSKSATESICNRRRIHGELKTYKEGINKNEEYRKQLDKKNELQKFQALWQLYHLEQQKEELTDKLSALNSEISSLKGKINNEMKSLQRSKSSFVKESAVISKQKSKLDYIFKDKEKLVSDLRLIKVPQQAAGKRISHIEKRIESLQKDLQRQKTYVERFETQLKVVTRSKEAFEEEIKQSARNYDKFKLNENDLKTYNCLHEKYLTEGGSILEEKIAVLNNDKREIQEELERFNKRADISKRRITEELSITGEKLDTQLNDLRVSLNEKNALHTERLHELKKLQSDIESANNQEYDLNFKLRETLVKIDDLSANQRETMKERKLRENIAMLKRFFPGVKGLVHDLCHPKKEKYGLAVSTILGKNFDSVIVENLTVAQECIAFLKKQRAGTASFIPLDTIETELPTLSLPDSQDYILSINAIDYEPEYEKAMQYVCGDSIICNTLNIAKDLKWKKGIRGKLVTIEGALIHKAGLMTGGISGDANNRWDKEEYQSLMSLKDKLLIQIDELSNGQRSNSIRAREVENSVSLLNSDIANLRTQVTQQKRSLDENRLEIKYHNDLIEKEIQPKITELKKKLDDLENTKDNLVKEKEALQNNIFKEFTSKIGFTIKEYENHSGELMRQQSKELQQLQKQILTVENKLQFETDRLSTTQRRYEKAQKDLENAQVEMKSLEEQEYAIEMKIGSIESKLEEHKNHLDELQKKFVTKQSELNSSEDILEDMNSNLQVLKRERDGIKEDIEKFDLERVTALKNCKISNINIPISSETTIDDLPISSTDNEAITISNSIDINYKGLPKKYKENNTDSARKELEQKIHEVEEILNELQPNARALERYDEAEGRFEVINNETEQLKAEEKKILNQFLKIKKKRKELFEKTFDYVSDHLDAIYRELTKNPNSNVELAGGNASLTIEDEDEPFNAGIKYHATPPLKRFKDMEYLSGGEKTVAALALLFAINSYQPSPFFVLDEVDAALDITNVQRIAAYIRRHRNPDLQFIVISLKNTMFEKSDALVGVYRQQQENSSKIITLDLSNYAE
With B1 the binding [1] was “binds”.

B2: Smc1(K639C) (protein, UniProt P32908 1-1225)
chain: MGRLVGLELSNFKSYRGVTKVGFGESNFTSIIGPNGSGKSNMMDAISFVLGVRSNHLRSNILKDLIYRGVLNDENSDDYDNEGAASSNPQSAYVKAFYQKGNKLVELMRIISRNGDTSYKIDGKTVSYKDYSIFLENENILIKAKNFLVFQGDVEQIAAQSPVELSRMFEEVSGSIQYKKEYEELKEKIEKLSKSATESIKNRRRIHGELKTYKEGINKNEEYRKQLDKKNELQKFQALWQLYHLEQQKEELTDKLSALNSEISSLKGKINNEMKSLQRSKSSFVKESAVISKQKSKLDYIFKDKEKLVSDLRLIKVPQQAAGKRISHIEKRIESLQKDLQRQKTYVERFETQLKVVTRSKEAFEEEIKQSARNYDKFKLNENDLKTYNCLHEKYLTEGGSILEEKIAVLNNDKREIQEELERFNKRADISKRRITEELSITGEKLDTQLNDLRVSLNEKNALHTERLHELKKLQSDIESANNQEYDLNFKLRETLVKIDDLSANQRETMKERKLRENIAMLKRFFPGVKGLVHDLCHPKKEKYGLAVSTILGKNFDSVIVENLTVAQECIAFLKKQRAGTASFIPLDTIETELPTLSLPDSQDYILSINAIDYEPEYEKAMQYVCGDSIICNTLNIACDLKWKKGIRGKLVTIEGALIHKAGLMTGGISGDANNRWDKEEYQSLMSLKDKLLIQIDELSNGQRSNSIRAREVENSVSLLNSDIANLRTQVTQQKRSLDENRLEIKYHNDLIEKEIQPKITELKKKLDDLENTKDNLVKEKEALQNNIFKEFTSKIGFTIKEYENHSGELMRQQSKELQQLQKQILTVENKLQFETDRLSTTQRRYEKAQKDLENAQVEMKSLEEQEYAIEMKIGSIESKLEEHKNHLDELQKKFVTKQSELNSSEDILEDMNSNLQVLKRERDGIKEDIEKFDLERVTALKNCKISNINIPISSETTIDDLPISSTDNEAITISNSIDINYKGLPKKYKENNTDSARKELEQKIHEVEEILNELQPNARALERYDEAEGRFEVINNETEQLKAEEKKILNQFLKIKKKRKELFEKTFDYVSDHLDAIYRELTKNPNSNVELAGGNASLTIEDEDEPFNAGIKYHATPPLKRFKDMEYLSGGEKTVAALALLFAINSYQPSPFFVLDEVDAALDITNVQRIAAYIRRHRNPDLQFIVISLKNTMFEKSDALVGVYRQQQENSSKIITLDLSNYAE
In the case of B2, the binding [2] is reported as “binds”.
